Laboratory results: PubChem BioAssay AID1259254 (NCATS, 2017)

Aim: 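Genome-wide screen for genes that prevent DNA re-replication in cancer cells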 (primary screen)
Cells: human HCT116 colorectal cancer cells
Reagents: single siRNA against human genes
Duration: 3 days
Measured: 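Nuclei stained with Hoechst and imaged; cell-cycle phase assigned by DNA content; G2 share scaled per plate, non-targeting siRNA 0%, GMNN siRNA 100%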
Direction: G2 robust z-score and G2 cells, % of GMNN control: higher = more G2 cells, more excess DNA replication; raw share of cells in G2: higher = larger share of cells with G2 DNA content
Call rule: 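Active siRNAs have a G2 robust z of 5 or more median absolute deviations over the median, which in these data means about 38% or higher of GMNN control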
In all, the deposit lists about 59,000 reagents; below is an unselected part. In the full data, about 1,550 (2.6%) were called active. 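G2 share is only a proxy for re-replication; each gene was hit by three separate siRNAs, and active genes were retested.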 Raw values vary from plate to plate and are shown uncorrected. Reagents against one gene are numbered here. Not stated in the record: the amount of reagent.

| gene symbol | reagent no. | G2 robust z-score | G2 cells, % of GMNN control | raw share of cells in G2 (%) | Call |
| --- | --- | --- | --- | --- | --- |
| OPA1 | 1 | -1.27 | -5.96 | 2.95 | inactive |
| OPA1 | 2 | -0.625 | -1.43 | 4.17 | inactive |
| OPA1 | 3 | -0.753 | -2.33 | 2.4 | inactive |
| HNRNPR | 1 | -0.327 | 0.668 | 4.06 | inactive |
| HNRNPR | 2 | 0.549 | 6.83 | 8.66 | inactive |
| HNRNPR | 3 | -0.452 | -0.214 | 6.39 | inactive |
| MNAT1 | 1 | -0.779 | -2.51 | 4.39 | inactive |
| MNAT1 | 2 | -0.659 | -1.67 | 2.64 | inactive |
| MNAT1 | 3 | 0.0862 | 3.57 | 6.89 | inactive |
| GNB5 | 1 | 1.59 | 14.2 | 11.9 | inactive |
| GNB5 | 2 | 0.154 | 4.05 | 5.15 | inactive |
| GNB5 | 3 | -0.751 | -2.32 | 5.57 | inactive |
| THAP1 | 1 | -0.358 | 0.448 | 4.52 | inactive |
| THAP1 | 2 | -0.576 | -1.08 | 4.05 | inactive |
| THAP1 | 3 | -1.22 | -5.61 | 3.97 | inactive |
| GPAM | 1 | 4.29 | 33.1 | 16.3 | inactive |
| GPAM | 2 | -0.494 | -0.51 | 5.44 | inactive |
| GPAM | 3 | 2.47 | 20.4 | 11.6 | inactive |
| VWA5B2 | 1 | 0.0284 | 3.17 | 5.43 | inactive |
| VWA5B2 | 2 | -0.745 | -2.27 | 2.29 | inactive |
| VWA5B2 | 3 | -0.108 | 2.21 | 3.63 | inactive |
| ZNF639 | 1 | 1.64 | 14.5 | 7.92 | inactive |
| ZNF639 | 2 | -0.151 | 1.91 | 6.77 | inactive |
| ZNF639 | 3 | -0.306 | 0.812 | 3.89 | inactive |
| PLAC9P1 | 1 | -0.979 | -3.92 | 2.43 | inactive |
| PLAC9P1 | 2 | -0.109 | 2.2 | 4.36 | inactive |
| PLAC9P1 | 3 | -0.206 | 1.52 | 5.29 | inactive |
| NR1H4 | 1 | 4.63 | 35.6 | 17.6 | inactive |
| NR1H4 | 2 | 0.661 | 7.62 | 6.48 | inactive |
| NR1H4 | 3 | 0.161 | 4.1 | 5.95 | inactive |
| CMTM6 | 1 | 0.635 | 7.43 | 5.65 | inactive |
| CMTM6 | 2 | 6.07 | 45.7 | 19.9 | active |
| CMTM6 | 3 | 0.152 | 4.03 | 5.97 | inactive |
| COL23A1 | 1 | 1.4 | 12.8 | 9.52 | inactive |
| COL23A1 | 2 | -0.478 | -0.398 | 2.88 | inactive |
| COL23A1 | 3 | -0.365 | 0.401 | 3.05 | inactive |
| C21orf58 | 1 | -0.558 | -0.961 | 2.87 | inactive |
| C21orf58 | 2 | -1.04 | -4.33 | 2.05 | inactive |
| C21orf58 | 3 | 0.198 | 4.36 | 6.11 | inactive |
| LRRC8C | 1 | 1.42 | 12.9 | 8.41 | inactive |
| LRRC8C | 2 | 0.22 | 4.51 | 4.8 | inactive |
| LRRC8C | 3 | 0.378 | 5.62 | 4.11 | inactive |
| NICN1 | 1 | -1.1 | -4.78 | 2.52 | inactive |
| NICN1 | 2 | 5.95 | 44.8 | 16.8 | active |
| NICN1 | 3 | -0.401 | 0.147 | 2.45 | inactive |
| TUBA5P | 1 | 1.92 | 16.5 | 9.67 | inactive |
| TUBA5P | 2 | -0.376 | 0.32 | 3.8 | inactive |
| TUBA5P | 3 | -0.0228 | 2.81 | 4.66 | inactive |
| MMUT | 1 | -0.746 | -2.28 | 2.44 | inactive |
| MMUT | 2 | 1.38 | 12.6 | 10.5 | inactive |
| MMUT | 3 | -0.42 | 0.0117 | 5.36 | inactive |
| GORASP1 | 1 | 1.12 | 10.9 | 9.31 | inactive |
| GORASP1 | 2 | 4.42 | 34.1 | 19.9 | inactive |
| GORASP1 | 3 | 1.4 | 12.8 | 6.08 | inactive |
| VSIR | 1 | -1.01 | -4.15 | 1.6 | inactive |
| VSIR | 2 | -0.486 | -0.449 | 4.39 | inactive |
| VSIR | 3 | 2.6 | 21.2 | 14.1 | inactive |
| PRR5 | 1 | -0.0762 | 2.43 | 3.91 | inactive |
| PRR5 | 2 | 3.42 | 27 | 14.9 | inactive |
| PRR5 | 3 | -0.667 | -1.72 | 3.42 | inactive |
| CCNJ | 1 | -0.698 | -1.94 | 2.91 | inactive |
| CCNJ | 2 | -0.191 | 1.62 | 4.95 | inactive |
| CCNJ | 3 | 3.09 | 24.7 | 11.4 | inactive |
| UBTF | 1 | 0.934 | 9.54 | 7.62 | inactive |
| UBTF | 2 | -0.143 | 1.96 | 6.43 | inactive |
| UBTF | 3 | -0.524 | -0.718 | 3.99 | inactive |
| CCNG2 | 1 | 2.11 | 17.8 | 11.3 | inactive |
| CCNG2 | 2 | 0.662 | 7.63 | 7.78 | inactive |
| CCNG2 | 3 | 3.39 | 26.8 | 13.3 | inactive |
| RPL21P106 | 1 | -0.185 | 1.67 | 3.63 | inactive |
| RPL21P106 | 2 | -0.338 | 0.592 | 3.86 | inactive |
| RPL21P106 | 3 | 0.467 | 6.25 | 5.52 | inactive |
| ZNF146 | 1 | 0.168 | 4.15 | 4.91 | inactive |
| ZNF146 | 2 | -0.957 | -3.77 | 4.31 | inactive |
| ZNF146 | 3 | 2.62 | 21.4 | 12.3 | inactive |
| PLA2G4A | 1 | 0.722 | 8.05 | 7.41 | inactive |
| PLA2G4A | 2 | -0.944 | -3.68 | 3.2 | inactive |
| PLA2G4A | 3 | 0.706 | 7.94 | 5.89 | inactive |
| BCLAF1 | 1 | -0.825 | -2.84 | 2.58 | inactive |
| BCLAF1 | 2 | -0.66 | -1.68 | 5.24 | inactive |
| BCLAF1 | 3 | -0.0298 | 2.76 | 4.49 | inactive |
| TLL2 | 1 | 2.47 | 20.4 | 12.7 | inactive |
| TLL2 | 2 | 0.155 | 4.06 | 6.34 | inactive |
| TLL2 | 3 | -0.276 | 1.03 | 4.29 | inactive |
| SLC25A38 | 1 | 0.795 | 8.56 | 7.9 | inactive |
| SLC25A38 | 2 | 3.15 | 25.1 | 13.4 | inactive |
| SLC25A38 | 3 | -0.438 | -0.117 | 6.38 | inactive |
